# According to PubChem BioAssay AID504467 (National Center for Advancing Translational Sciences (NCATS), 2011):
# Out of some 330,000 compounds screened, about 7,700 (2.3%) were called active. The shares of active, inactive and inconclusive entries below differ from those in the screen. The call rests on the fitted dose curve; in most records, active means well fitted inhibition curve with a large enough effect; inconclusive means small, poorly fitted or top-dose-only effect, or effect the other way; inactive means flat fitted curve, though single readings scatter. A potency beside an inconclusive call is a rough fit, not a confirmed value.
# Assay: qHTS screen for small molecules that inhibit ELG1-dependent DNA repair in human embryonic kidney (HEK293T) cells expressing luciferase-tagged ELG1; further: nearly all actives have a fitted effect of over 55% in size
# Conditions: HEK293T ELG1-luciferase reporter, luminescence, 16 h, DNA damage induced by 5-fluorouridine; series mostly up to 46.1 µM
# How it was run: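 HEK293T cells expressing luciferase-tagged ELG1 (2,000/well) received 5-Fluorouridine plus compound or DMSO for 16 hr at 37 °C. Luciferase was read by ONE-Glo luminescence after 30 min at room temperature.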
# Potency means the concentration at half of the fitted maximal effect.
row,SMILES,Potency
1,O=C(OCC(=O)N1CCCCCC1)c1cccs1,"inconclusive: 18.4 µM [activator, partial curve]"
2,O=C(Nc1nccs1)c1ccc[nH]c1=O,"inconclusive: 18.3 µM [activator, single point]"
3,CCN(C[C@H]1N[C@@](C)(C(=O)OC)[C@H]2C(=O)N(Cc3ccccc3)C(=O)[C@@H]12)C(=O)COC,"inconclusive: 29.1 µM [activator, partial curve, poor fit]"
4,NC(=O)C[C@H](N)c1cn([C@@H](CC(N)=O)C(=O)N2CCNCC2)nn1,"inconclusive: 20 µM [activator, partial curve, poor fit]"
5,O=C(CNC(=O)c1ccc2c(c1)OCO2)Nc1ncccc1O,"inconclusive: 16.4 µM [activator, partial curve]"
6,CCOc1cc(N2CCOCC2)c(OCC)cc1NC(=O)COc1cccc2cccnc12,"inconclusive: 23.1 µM [inhibitor, partial curve]"
7,O=C(CN1CCC(C(=O)c2ccc(F)cc2)CC1)Nc1ccc(F)cc1,"inconclusive: 14.6 µM [inhibitor, partial curve, poor fit]"
8,COC(=O)[C@@]1(C)[C@H]2C(=O)N(Cc3ccccc3)C(=O)[C@H]2[C@H]2CN=C(SCc3ccc(Cl)cc3)N21,inactive
9,Cc1[nH]n(-c2nc(-c3ccccc3F)cc(=O)[nH]2)c(=O)c1CCO,inactive
10,COc1ccccc1NC(=S)NCCc1ccccc1,inactive
11,COC(=O)c1cc(N=Nc2sc(N)nc2C)cc(C(=O)OC)c1,"inconclusive: 20.6 µM [inhibitor, partial curve]"
12,COc1ccc(CC(=O)N2CCc3ccccc3C2)cc1,"inconclusive: 11.6 µM [activator, partial curve]"
13,Cc1ccc(-c2c(C(=O)O)c3ccccc3[nH]c2=O)cc1,inactive
14,COc1ccc(N(CC(=O)NCCc2ccc(OC)c(OC)c2)S(=O)(=O)c2ccc(OC)c(OC)c2)cc1,inactive
15,CC1Sc2ccc(C(=O)NCc3ccccc3Cl)cc2NC1=O (configuration not stated),"inconclusive: 16.4 µM [activator, single point]"
16,COc1ccc(CCNC(=O)c2ccc3ccccc3n2)cc1,"inconclusive: 14.6 µM [activator, partial curve]"
17,COc1ccc(F)cc1S(=O)(=O)Nc1cc2c3c(c1)CCN3C(=O)CC2,"inconclusive: 5.8 µM [activator, single point]"
18,COCCNC(=O)c1c[nH]c2ccc(S(=O)(=O)N3CCc4ccccc43)cc2c1=O,active: 10.3 µM
19,Cc1cc(C)nc(N/C(=N\S(=O)(=O)Cc2ccccc2)Nc2ccccc2Br)n1,"inconclusive: 20.6 µM [inhibitor, partial curve, poor fit]"
20,COc1ccc(CNC(=O)CCCCCNC(=O)N2CCn3c2nc2ccccc23)cc1,inactive
21,COc1ccc(N2CCN(C(=O)c3ccc(OCC4CCCO4)cc3)CC2)cc1 (configuration not stated),"inconclusive: 6.51 µM [inhibitor, single point]"
22,Cn1cccc1C1CCCN1CC(=O)Nc1c(Cl)cc(Cl)cc1Cl (configuration not stated),"inconclusive: 6.51 µM [activator, partial curve, poor fit]"
23,CCN(c1ccccc1)S(=O)(=O)c1ccc(OC)c(NC(=O)CN(C)C)c1,inactive

# 3 entries out of the list, ordered by length of the SMILES, rising:
row,SMILES,Potency
5,O=C(CNC(=O)c1ccc2c(c1)OCO2)Nc1ncccc1O,"inconclusive: 16.4 µM [activator, partial curve]"
20,COc1ccc(CNC(=O)CCCCCNC(=O)N2CCn3c2nc2ccccc23)cc1,inactive
3,CCN(C[C@H]1N[C@@](C)(C(=O)OC)[C@H]2C(=O)N(Cc3ccccc3)C(=O)[C@@H]12)C(=O)COC,"inconclusive: 29.1 µM [activator, partial curve, poor fit]"

# Carrying on.

row,SMILES,Potency
1,COc1ccc(CN(CC2CCCO2)C(=O)CN2C(=O)COc3ccccc32)cc1OC (configuration not stated),active: 11.6 µM
2,N#Cc1cccc(NC(=O)COC(=O)c2ccccc2C(=O)c2ccc(Cl)c([N+](=O)[O-])c2)c1,"inconclusive: 18.4 µM [inhibitor, single point]"
3,Cc1nc(N2CCN(c3ccccn3)CC2)c2c(C)c(C(=O)Nc3ccc(F)c(Cl)c3)sc2n1,active: 3.26 µM
4,Cc1ccc(NC(=S)NC2CCSc3ccccc32)cc1 (configuration not stated),"inconclusive: 29.1 µM [inhibitor, single point]"
5,C[C@H](CO)N1C[C@H](C)[C@@H](CN(C)C(=O)Nc2ccccc2)Oc2c(NC(=O)Nc3ccc(C(F)(F)F)cc3)cccc2C1=O,"inconclusive: 29.1 µM [inhibitor, single point]"
6,Cc1ccc(NC(=S)NC2CCN(Cc3ccccc3)CC2)cc1C,"inconclusive: 25.9 µM [inhibitor, partial curve, poor fit]"
7,CNCCCOc1ccc(C(C)(C)c2ccccc2)cc1,"inconclusive: 29.1 µM [activator, single point]"
8,CCCCCOc1ccc(CSC2=NCCN2)cc1[N+](=O)[O-],"inconclusive: 29.1 µM [activator, single point]"
9,COc1cccc(C2CC(c3cccs3)=NN2C(=O)CSc2nc3ccccc3o2)c1OC (configuration not stated),"inconclusive: 14.6 µM [inhibitor, partial curve, poor fit]"
10,COC1OC(COC(=O)c2ccccc2)C(OC(=O)c2ccccc2)C1OC(=O)c1ccccc1 (configuration not stated),"inconclusive: 18.3 µM [inhibitor, partial curve, poor fit]"
11,CCc1nn(CC(=O)NCCCN2CCc3ccccc3C2)c(=O)c2cc3sccc3n12,inactive
12,COc1ccc(NC(=S)c2ccc(N(C)C)cc2)cc1,"inconclusive: 7.31 µM [activator, partial curve]"
13,OC(COc1ccc2ccccc2c1)CN1CCOCC1 (configuration not stated),"inconclusive: 20.6 µM [activator, single point]"
14,COCCNC(=O)CSc1ccc(Cl)cc1,inactive
15,Cc1cccc(-n2c(SCC(=O)N3CC(=O)Nc4ccccc43)nc3ccccc3c2=O)c1C,active: 20.6 µM
16,COCC(=O)Nc1cc(C(=O)Nc2cccc(C)c2C)ccc1Cl,"inconclusive: 14.6 µM [activator, single point]"
17,CC(SCC(=O)Nc1ccccc1)c1nc2ccccc2c(=O)[nH]1 (configuration not stated),inactive
18,CCCCn1c(O)c(N=NC(=O)c2ccncc2)c2cc(Br)ccc21,"inconclusive: 25.9 µM [inhibitor, single point]"
19,COC(=O)c1sccc1NC(=O)c1ccc2c(c1)OCO2,"inconclusive: 13 µM [inhibitor, single point]"
20,O=C(COc1ccc(S(=O)(=O)N2CCOCC2)cc1)Nc1ccc(Br)cc1,"inconclusive: 20.6 µM [inhibitor, partial curve, poor fit]"
21,Cc1cc(C=O)c(C)n1-c1ccc(Cl)c(C(=O)O)c1,inactive
22,CCC(C)n1c(SCC(=O)Nc2cc(C)on2)nc2ccccc2c1=O (configuration not stated),"inconclusive: 20.6 µM [inhibitor, single point]"
23,Cc1ccccc1NC(=O)Nc1nnc(CC(=O)NCc2ccccc2)s1,inactive

row,SMILES,Potency
1,CC(C)(C)c1ccc(OCCC(=O)OCC(=O)NCc2ccccc2)cc1,inactive
2,Cc1ccc(/C=C/C(=O)Nc2nc3ccccc3[nH]2)cc1,"inconclusive: 4.11 µM [activator, partial curve]"
3,COc1cc(/C=C(/C#N)c2nc3ccccc3[nH]2)ccc1OC(=O)c1ccco1,"inconclusive: 13 µM [activator, partial curve]"
4,COc1ccccc1-c1ccc(SCc2cccc(F)c2)nn1,"inconclusive: 14.6 µM [activator, single point]"
5,CCc1cc2c(=O)[nH]c(Cc3ccc(OC)cc3)nc2s1,"inconclusive: 18.4 µM [activator, partial curve, poor fit]"
6,Cc1cc(=O)[nH]c(N/N=C/c2sccc2C)n1,"inconclusive: 29.1 µM [activator, single point]"
7,O=C(O)c1cccc2c1C(=O)c1ccc(-c3ccc(F)cc3OCc3ccccc3)cc1S2(=O)=O,"inconclusive: 23.1 µM [activator, partial curve]"
8,COc1cccc(Nc2nc(-c3cccnc3)cs2)c1,"inconclusive: 2.91 µM [activator, partial curve]"
9,Cc1ccc(Cn2nnc3c(=O)n(CC(=O)OCc4ccccc4)cnc32)cc1,inactive
10,C#CCSc1nc(C)cc(C(=O)OCC)c1C#N,inactive
11,Cc1ccc(C(=O)COC(=O)c2ccc3c(c2)C(=O)N(c2cccc4ncccc24)C3=O)cc1C,inactive
12,O=C(Nc1cccc(C(F)(F)F)c1)c1scc2c1OCCO2,"inconclusive: 16.4 µM [activator, partial curve]"
13,Cc1ccc(NC(=O)CN(C)C(=O)CSc2nnnn2C)cc1,"inconclusive: 5.8 µM [activator, partial curve, poor fit]"
14,COc1cccc(/C=N\NC(=O)c2ccc(Cn3cc(Br)c([N+](=O)[O-])n3)o2)c1O,"inconclusive: 1.64 µM [inhibitor, partial curve, poor fit]"
15,CC(C)C[C@H](NC(=O)N1CC(=O)Nc2ccccc21)C(=O)N1CCC[C@H]1C(=O)O,inactive
16,COC(=O)[C@H](CC(C)C)NC(=O)Cn1cnc(C(=O)Nc2ccc(C)c(C)c2)n1,"inconclusive: 18.3 µM [activator, partial curve]"
17,Cc1cc(OCC(=O)NCCN2CCOCC2)c2c(C)c(C)c(=O)oc2c1,"inconclusive: 9.2 µM [activator, partial curve]"
18,CC(C)(C)C1(O)CC(C(F)(F)F)=NN1C(=O)Cc1ccc([N+](=O)[O-])cc1 (configuration not stated),inactive
19,COc1ccc(OC)c(S(=O)(=O)CC(O)COc2ccccc2Cl)c1 (configuration not stated),"inconclusive: 14.6 µM [inhibitor, partial curve, poor fit]"
20,COc1cc(OC)cc(C(=O)NC(=S)Nc2ccc(NC(=O)c3ccco3)cc2)c1,"inconclusive: 32.6 µM [activator, partial curve, poor fit]"
21,CCN1C[C@@H]2[C@@H]3C(=O)N(Cc4ccccc4)C(=O)[C@@H]3[C@](CC)(C(=O)OC)N2C1=NC1CCCCC1,inactive
